Experimental data: the supplement of paper PMC10331698
± gives the standard deviation of the averaged measurements. Small differences around the control level are noise.

Experiments:
Experiment in all cases: level (log10 ratio to DMSO vehicle control); higher = higher biomarker level / cell amount than vehicle control
[1] = compound: C=C(C)C(=O)OCCC(F)(F)C(F)(F)C(F)(F)C(F)(F)C(F)(F)C(F)(F)F [6:2 Fluorotelomer methacrylate] (in DMSO); conditions: 2200 nM
Protocol: (§1)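 BioMAP Diversity Plus panel of 12 human primary cell co-culture systems (3C, 4H, LPS, SAg, BT, BF4T, BE3C, CASM3C, HDF3CGF, KF3CT, MyoF, Mphg). Compounds were added 1 h before stimulation and left for 24 h (MyoF 48 h; BT 72 h for soluble read-outs or 6 d for IgG). Biomarkers were read by ELISA, cytotoxicity by SRB, PBMC viability and proliferation by Alamar Blue. Each well value was divided by the mean of 8 DMSO control wells on the same plate and log10 transformed; duplicate blinded samples were tested at 4 concentrations.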

[2] = compound: CNS(=O)(=O)C(F)(F)C(F)(F)C(F)(F)C(F)(F)C(F)(F)C(F)(F)C(F)(F)C(F)(F)F [N-Methylperfluorooctanesulfonamide] (in DMSO); conditions: 2200 nM
Protocol: as §1

[3] = compound: FC(F)(F)C(F)(F)C(F)(F)C(F)(F)CCI [1H,1H,2H,2H-Perfluorohexyl iodide] (in DMSO); conditions: 2200 nM
Protocol: as §1

[4] = compound: FC(F)(F)C(F)(F)CNCC(F)(F)C(F)(F)F [Bis(1H,1H-perfluoropropyl)amine] (in DMSO); conditions: 2200 nM
Protocol: as §1

[5] = compound: FC(F)(F)COC(OCC(F)(F)F)OCC(F)(F)F [tris(Trifluoroethoxy)methane] (in DMSO); conditions: 2200 nM
Protocol: as §1

Hexafluoroglutaric acid = compound: O=C(O)C(F)(F)C(F)(F)C(F)(F)C(=O)O [Hexafluoroglutaric acid] (in DMSO)
Protocol: as §1

Perfluorohexanoic acid = compound: O=C(O)C(F)(F)C(F)(F)C(F)(F)C(F)(F)C(F)(F)F [Perfluorohexanoic acid] (in DMSO)
Protocol: as §1

[6] = compound: O=C(O)C(F)(F)C(F)(F)C(F)(F)OC(F)(C(F)(F)F)C(F)(F)F [Perfluoro-4-isopropoxybutanoic acid] (in DMSO); conditions: 2200 nM
Protocol: as §1

[7] = compound: O=C(O)C(F)(OC(F)(F)C(F)(F)C(F)(F)F)C(F)(F)F [Ammonium perfluoro-2-methyl-3-oxahexanoate] (in Water)
Protocol: as §1

[8] = compound: O=C(O)C(F)(OC(F)(F)C(F)(OC(F)(F)C(F)(OC(F)(F)C(F)(F)C(F)(F)F)C(F)(F)F)C(F)(F)F)C(F)(F)F [Perfluoro-(2,5,8-trimethyl-3,6,9-trioxadodecanoic)acid] (in DMSO); conditions: 370 nM
Protocol: as §1

[9] = compound: O=C(O)CCC(F)(F)C(F)(F)C(F)(F)F [3:3 Fluorotelomer carboxylic acid] (in DMSO); conditions: 2200 nM
Protocol: as §1

[10] = compound: O=S(=O)(O)C(F)(F)C(F)(F)C(F)(F)C(F)(F)F [Perfluorobutanesulfonic acid] (in DMSO)
Protocol: as §1

[11] = compound: OCC(F)(F)C(F)(F)C(F)(F)C(F)(F)C(F)(F)C(F)(F)CO [1H,1H,8H,8H-Perfluorooctane-1,8-diol] (in DMSO); conditions: 2200 nM
Protocol: as §1

[12] = compound: OCC(F)(F)C(F)(F)C(F)(F)C(F)(F)C(F)(F)C(F)(F)F [6:1 Fluorotelomer alcohol] (in DMSO); conditions: 2200 nM
Protocol: as §1

[13] = compound: OCC(F)(F)C(F)(F)C(F)(F)C(F)F [1H,1H,5H-Perfluoropentanol] (in DMSO); conditions: 2200 nM
Protocol: as §1

[14] = compound: OCC(F)(F)OC(F)(F)C(F)(F)OC(F)(F)CO [1H,1H,8H,8H-Perfluoro-3,6-dioxaoctane-1,8-diol] (in DMSO); conditions: 2200 nM
Protocol: as §1

[15] = compound: OCCCC(F)(F)C(F)(F)C(F)(F)C(F)(F)C(F)(F)C(F)(F)C(F)(F)C(F)(F)F [3-(Perfluorooctyl)propanol] (in DMSO); conditions: 2200 nM
Protocol: as §1

Row | Test System | level (log10) [1] | level (log10) [2] | level (log10) [3] | level (log10) [4] | level (log10) [5] | level (log10) (Hexafluoroglutaric acid; 2200 nM) | level (log10) (Hexafluoroglutaric acid; 6700 nM) | level (log10) (Hexafluoroglutaric acid; 20000 nM) | level (log10) (Hexafluoroglutaric acid; 60000 nM) | level (log10) (Perfluorohexanoic acid; 2200 nM) | level (log10) (Perfluorohexanoic acid; 6700 nM) | level (log10) (Perfluorohexanoic acid; 20000 nM) | level (log10) (Perfluorohexanoic acid; 60000 nM) | level (log10) [6] | level (log10) ([7]; 2200 nM) | level (log10) ([7]; 6700 nM) | level (log10) ([7]; 20000 nM) | level (log10) ([7]; 60000 nM) | level (log10) [8] | level (log10) [9] | level (log10) ([10]; 2200 nM) | level (log10) ([10]; 6700 nM) | level (log10) ([10]; 20000 nM) | level (log10) ([10]; 60000 nM) | level (log10) [11] | level (log10) [12] | level (log10) [13] | level (log10) [14] | level (log10) [15]
1 | CASM3C:CD106/VCAM-1 | -0.0115 ± 0.00071 | -0.0225 ± 0.1 | -0.013 ± 0.076 | -0.041 ± 0.028 | -0.019 ± 0.017 | -0.0025 ± 0.06 | -0.0105 ± 0.03 | -0.0125 ± 0.036 | 0.012 ± 0.011 | 0.002 ± 0.02 | -0.013 ± 0.011 | -0.002 ± 0.014 | -0.029 ± 0.018 | 0.041 ± 0.054 | -0.0525 ± 0.0035 | -0.0955 ± 0.061 | -0.0645 ± 0.005 | -0.083 ± 0.011 | -0.0065 ± 0.0092 | -0.006 ± 0.0057 | -0.003 ± 0.016 | -0.0465 ± 0.021 | -0.0255 ± 0.025 | -0.033 ± 0.0057 | 0.0105 ± 0.0021 | -0.0015 ± 0.025 | -0.012 ± 0.0028 | -0.007 ± 0.017 | -0.04 ± 0.033
2 | CASM3C:CD141/Thrombomodulin | 0.0185 ± 0.079 | 0.02 ± 0.069 | 0.0105 ± 0.043 | 0 ± 0.0085 | -0.0235 ± 0.018 | 0.0155 ± 0.026 | -0.008 ± 0.0099 | -0.0175 ± 0.0021 | 0.043 ± 0.065 | -0.0055 ± 0.019 | 0.021 ± 0.021 | -0.0105 ± 0.021 | 0.0005 ± 0.044 | 0.0255 ± 0.033 | 0.0125 ± 0.025 | 0.113 ± 0.0057 | 0.0435 ± 0.11 | 0.035 ± 0.038 | 0.011 ± 0.024 | 0.003 ± 0.011 | -0.0235 ± 0.005 | 0.01 ± 0.028 | -0.0095 ± 0.016 | 0.0075 ± 0.016 | -0.0205 ± 0.005 | 0.0065 ± 0.011 | -0.001 ± 0.075 | 0.014 ± 0.027 | -0.018 ± 0.041
3 | CASM3C:CD142/Tissue Factor | -0.0115 ± 0.037 | 0.009 ± 0.11 | -0.006 ± 0.052 | -0.04 | -0.001 ± 0.021 | 0.0105 ± 0.036 | 0.003 ± 0.033 | 0.0015 ± 0.005 | 0.0185 ± 0.021 | -0.0045 ± 0.011 | -0.0125 ± 0.013 | -0.019 ± 0.0042 | -0.0145 ± 0.005 | -0.0015 ± 0.079 | 0.022 ± 0.033 | 0.022 ± 0.013 | -0.0045 ± 0.028 | -0.009 ± 0.089 | 0.021 ± 0.028 | -0.001 ± 0.0099 | 0.018 ± 0.028 | -0.0085 ± 0.0035 | -0.0115 ± 0.018 | 0.0135 ± 0.012 | -0.0195 ± 0.011 | 0.0005 ± 0.052 | 0.008 ± 0.041 | -0.02 ± 0.0042 | -0.002 ± 0.0085
4 | CASM3C:CXCL8/IL-8 | 0.037 ± 0.042 | 0.029 ± 0.023 | 0.031 ± 0.016 | 0.002 ± 0.0085 | 0.0035 ± 0.021 | 0.009 ± 0.038 | -0.002 ± 0.017 | -0.016 ± 0.014 | 0.0075 ± 0.0064 | 0.015 ± 0.0042 | 0.0005 ± 0.021 | 0.007 ± 0.0099 | 0.0265 ± 0.028 | 0.0435 ± 0.015 | 0.0165 ± 0.015 | 0.005 ± 0.0042 | 0.034 ± 0.024 | 0.056 ± 0.024 | 0.0065 ± 0.012 | -0.001 ± 0.0057 | 0.0385 ± 0.064 | 0.0255 ± 0.049 | 0.0255 ± 0.025 | 0.0375 ± 0.025 | 0.0015 ± 0.028 | 0.01 ± 0.023 | 0.0195 ± 0.0035 | 0.0055 ± 0.005 | 0.0125 ± 0.018
5 | CASM3C:CXCL9/MIG | 0.035 ± 0.033 | 0.0155 ± 0.054 | 0.0435 ± 0.03 | 0 ± 0.058 | -0.002 ± 0.033 | 0.0085 ± 0.052 | -0.0195 ± 0.019 | -0.02 ± 0.0085 | 0.022 ± 0.033 | 0.0055 ± 0.021 | 0.008 ± 0.0057 | 0.001 ± 0.0042 | 0.012 ± 0.021 | 0.0245 ± 0.066 | 0.078 ± 0.024 | 0.039 ± 0.038 | 0.05 ± 0.0071 | 0.0595 ± 0.015 | 0.0105 ± 0.023 | 0.005 ± 0.0085 | 0.0245 ± 0.056 | 0.01 ± 0.028 | 0.0135 ± 0.035 | 0.0465 ± 0.0092 | 0.0165 ± 0.0064 | 0.0125 ± 0.023 | 0.0395 ± 0.019 | 0.0145 ± 0.005 | -0.004 ± 0.0028
6 | CASM3C:HLA-DR | 0.001 ± 0.03 | 0.0125 ± 0.076 | 0.0345 ± 0.08 | 0.022 ± 0.048 | -0.002 ± 0.014 | 0.0195 ± 0.026 | 0.0165 ± 0.049 | -0.015 ± 0.045 | 0.0055 ± 0.019 | 0.0275 ± 0.00071 | 0.004 ± 0.0099 | -0.004 ± 0.0057 | -0.004 ± 0.011 | 0.018 ± 0.089 | 0.046 ± 0.045 | 0.0195 ± 0.054 | 0.01 ± 0.059 | 0.004 ± 0.0071 | 0.0005 ± 0.032 | 0.0155 ± 0.025 | 0.0145 ± 0.019 | -0.0085 ± 0.0035 | -0.0075 ± 0.00071 | -0.0025 ± 0.0078 | -0.0025 ± 0.013 | 0.008 ± 0.02 | 0.009 ± 0.037 | 0.006 ± 0.0028 | -0.0225 ± 0.018
7 | CASM3C:IL-6 | -0.0045 ± 0.063 | 0.002 ± 0.096 | 0.0495 ± 0.026 | -0.007 ± 0.076 | 0.002 ± 0.028 | 0.025 ± 0.033 | -0.0175 ± 0.0035 | -0.015 ± 0.021 | 0.022 ± 0.082 | 0.005 | -0.0075 ± 0.042 | -0.0155 ± 0.0021 | -0.0125 ± 0.053 | 0.0555 ± 0.039 | 0.0405 ± 0.036 | 0.0075 ± 0.005 | -0.052 ± 0.042 | -0.0375 ± 0.047 | -0.002 ± 0.047 | 0.026 ± 0.067 | 0.0105 ± 0.00071 | -0.032 ± 0.028 | -0.0375 ± 0.0021 | -0.015 ± 0.0057 | 0.0185 ± 0.036 | 0.0145 ± 0.047 | -0.002 ± 0.014 | 0.0185 ± 0.049 | 0.007 ± 0.055
